In patent publication US7083933B1, “Methods for identification of modulators of OSGPR116 activity” (Prosidion Limited, priority 2003, dated 2006):
At least one structure is not confirmed: it was looked up by name or label, or the drawing left a doubt.

Tested on: vector transformed yeast cells
Assay: Yeast reporter assay, vector transformed (no receptor) control yeast
Type: cell-based
Conditions: yeast without OSGPR116 expression, FIGS. 9a, 9b
Text: The yeast cell-based reporter assays have previously been described in the literature (e.g. see Miret J. J., et. al. (2002) J. Biol. Chem. 277:6881–6887; Campbell R. M., et. al. (1999) Bioorg Med. Chem. Lett. 9:2413–2418; King K., et. al. (1990) Science. 250:121–123); WO 99/14344; WO 00/12704; and U.S. Pat. No. 6,100,042). Briefly, yeast cells have been engineered such that the endogenous yeast G-alpha (GPA1) has been deleted and replaced with G-protein chimeras constructed using multiple techniques. Additionally the endogenous yeast alpha-cell GPCR, Ste3 has been deleted to allow for a […] expression of a mammalian GPCR of choice. […] By placing β-galactosidase (LacZ) under the control of the Fus1 promoter (Fus1p), a system has been developed whereby receptor activation leads to an enzymatic read-out. […]
In order to perform fluorometric enzyme assays for β-galactosidase, yeast cells were grown overnight in liquid SD-LUT media to an unsaturated concentration (i.e. the cells are still dividing and have not yet reached stationary phase). […] The substrate may yield a fluorescent or calorimetric read-out upon the activity of the β-galactosidase. In these experiments, Fluorescein di (β-D-galactopyranoside) was used (FDG), a substrate for the enzyme that releases fluorescein, allowing a fluorometric read-out. […] The plates were then read in a fluorometer at 485/535 nm. […]

## CCCCC/C=C\C/C=C\CCCCCCCC(=O)NCCO [linoleoyl ethanolamide]
  increase in fluorescence in vector transformed cells: not
